From US7763585B2, “Methods for inhibiting tumor cell proliferation” (priority 2003, dated 2010)
Some entries repeat one wording, which the source may state once for all of them.

What follows are compounds tested on hSIE oligonucleotide (assay: Un-annealing/re-annealing of treated hSIE oligonucleotide, agarose gel electrophoresis). Details: ethidium bromide, versus untreated control oligonucleotide, FIG. 2.

Row | Compound | Migration pattern and band sharpness of treated, re-annealed hSIE oligonucleotide (DNA integrity)
1 | O=[N+]([O-])[Pt]1([Cl])([Cl])([Cl])[NH]CC[NH]1 [ISS CPA-1] | identical migration pattern and band sharpness
2 | [NH2][Pt]([NH2])([Cl])([Cl])([Cl])[N+](=O)[O-] [ISS CPA-7] | identical migration pattern and band sharpness
3 | [Cl][Pt]([Cl])([Cl])[Cl] [platinum (IV) chloride] | identical migration pattern and band sharpness
